From publication PMC7082549
Results are given in words; binding and its absence hold for the method and conditions named. Binding seen in cells or lysates may run through a third protein. These calls come from enrichment with a bait or labelling near it, and not all partners need be listed. Tags and fused reporters may be left off the sequences shown.

The chains behind the UniProt entries cited, without tags or fusion partners.
UniProt P06748: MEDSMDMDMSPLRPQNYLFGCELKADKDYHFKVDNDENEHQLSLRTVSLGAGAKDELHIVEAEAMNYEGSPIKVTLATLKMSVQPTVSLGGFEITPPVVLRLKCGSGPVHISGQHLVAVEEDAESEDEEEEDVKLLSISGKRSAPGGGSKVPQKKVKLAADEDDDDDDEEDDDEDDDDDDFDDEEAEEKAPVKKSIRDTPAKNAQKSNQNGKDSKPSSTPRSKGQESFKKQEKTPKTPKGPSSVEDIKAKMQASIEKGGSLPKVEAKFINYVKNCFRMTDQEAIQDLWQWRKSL
UniProt P09874: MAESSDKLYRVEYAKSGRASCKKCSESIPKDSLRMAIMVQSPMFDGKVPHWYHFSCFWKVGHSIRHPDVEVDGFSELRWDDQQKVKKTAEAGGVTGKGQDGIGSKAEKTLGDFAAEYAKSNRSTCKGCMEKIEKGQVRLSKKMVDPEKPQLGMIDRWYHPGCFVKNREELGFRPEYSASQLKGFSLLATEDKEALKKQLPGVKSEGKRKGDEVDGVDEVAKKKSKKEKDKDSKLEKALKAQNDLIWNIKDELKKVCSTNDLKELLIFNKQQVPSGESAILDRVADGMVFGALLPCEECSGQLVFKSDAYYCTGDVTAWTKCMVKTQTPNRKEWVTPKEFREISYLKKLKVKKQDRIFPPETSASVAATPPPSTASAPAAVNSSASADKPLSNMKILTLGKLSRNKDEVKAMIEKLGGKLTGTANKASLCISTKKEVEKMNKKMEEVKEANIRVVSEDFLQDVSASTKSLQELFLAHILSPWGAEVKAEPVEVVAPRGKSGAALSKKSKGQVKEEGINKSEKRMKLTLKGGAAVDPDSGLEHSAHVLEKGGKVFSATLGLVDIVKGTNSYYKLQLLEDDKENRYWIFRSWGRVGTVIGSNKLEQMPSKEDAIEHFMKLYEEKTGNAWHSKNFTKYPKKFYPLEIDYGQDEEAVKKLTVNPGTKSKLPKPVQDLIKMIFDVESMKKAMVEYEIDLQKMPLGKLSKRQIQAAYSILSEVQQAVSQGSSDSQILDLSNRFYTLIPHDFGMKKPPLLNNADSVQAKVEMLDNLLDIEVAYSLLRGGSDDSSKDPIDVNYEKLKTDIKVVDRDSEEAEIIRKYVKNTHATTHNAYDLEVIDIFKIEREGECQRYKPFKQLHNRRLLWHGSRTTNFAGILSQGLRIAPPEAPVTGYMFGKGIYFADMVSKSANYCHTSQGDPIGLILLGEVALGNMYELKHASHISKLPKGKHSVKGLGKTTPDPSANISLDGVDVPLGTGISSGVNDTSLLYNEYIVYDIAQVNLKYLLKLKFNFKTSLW
UniProt P78527: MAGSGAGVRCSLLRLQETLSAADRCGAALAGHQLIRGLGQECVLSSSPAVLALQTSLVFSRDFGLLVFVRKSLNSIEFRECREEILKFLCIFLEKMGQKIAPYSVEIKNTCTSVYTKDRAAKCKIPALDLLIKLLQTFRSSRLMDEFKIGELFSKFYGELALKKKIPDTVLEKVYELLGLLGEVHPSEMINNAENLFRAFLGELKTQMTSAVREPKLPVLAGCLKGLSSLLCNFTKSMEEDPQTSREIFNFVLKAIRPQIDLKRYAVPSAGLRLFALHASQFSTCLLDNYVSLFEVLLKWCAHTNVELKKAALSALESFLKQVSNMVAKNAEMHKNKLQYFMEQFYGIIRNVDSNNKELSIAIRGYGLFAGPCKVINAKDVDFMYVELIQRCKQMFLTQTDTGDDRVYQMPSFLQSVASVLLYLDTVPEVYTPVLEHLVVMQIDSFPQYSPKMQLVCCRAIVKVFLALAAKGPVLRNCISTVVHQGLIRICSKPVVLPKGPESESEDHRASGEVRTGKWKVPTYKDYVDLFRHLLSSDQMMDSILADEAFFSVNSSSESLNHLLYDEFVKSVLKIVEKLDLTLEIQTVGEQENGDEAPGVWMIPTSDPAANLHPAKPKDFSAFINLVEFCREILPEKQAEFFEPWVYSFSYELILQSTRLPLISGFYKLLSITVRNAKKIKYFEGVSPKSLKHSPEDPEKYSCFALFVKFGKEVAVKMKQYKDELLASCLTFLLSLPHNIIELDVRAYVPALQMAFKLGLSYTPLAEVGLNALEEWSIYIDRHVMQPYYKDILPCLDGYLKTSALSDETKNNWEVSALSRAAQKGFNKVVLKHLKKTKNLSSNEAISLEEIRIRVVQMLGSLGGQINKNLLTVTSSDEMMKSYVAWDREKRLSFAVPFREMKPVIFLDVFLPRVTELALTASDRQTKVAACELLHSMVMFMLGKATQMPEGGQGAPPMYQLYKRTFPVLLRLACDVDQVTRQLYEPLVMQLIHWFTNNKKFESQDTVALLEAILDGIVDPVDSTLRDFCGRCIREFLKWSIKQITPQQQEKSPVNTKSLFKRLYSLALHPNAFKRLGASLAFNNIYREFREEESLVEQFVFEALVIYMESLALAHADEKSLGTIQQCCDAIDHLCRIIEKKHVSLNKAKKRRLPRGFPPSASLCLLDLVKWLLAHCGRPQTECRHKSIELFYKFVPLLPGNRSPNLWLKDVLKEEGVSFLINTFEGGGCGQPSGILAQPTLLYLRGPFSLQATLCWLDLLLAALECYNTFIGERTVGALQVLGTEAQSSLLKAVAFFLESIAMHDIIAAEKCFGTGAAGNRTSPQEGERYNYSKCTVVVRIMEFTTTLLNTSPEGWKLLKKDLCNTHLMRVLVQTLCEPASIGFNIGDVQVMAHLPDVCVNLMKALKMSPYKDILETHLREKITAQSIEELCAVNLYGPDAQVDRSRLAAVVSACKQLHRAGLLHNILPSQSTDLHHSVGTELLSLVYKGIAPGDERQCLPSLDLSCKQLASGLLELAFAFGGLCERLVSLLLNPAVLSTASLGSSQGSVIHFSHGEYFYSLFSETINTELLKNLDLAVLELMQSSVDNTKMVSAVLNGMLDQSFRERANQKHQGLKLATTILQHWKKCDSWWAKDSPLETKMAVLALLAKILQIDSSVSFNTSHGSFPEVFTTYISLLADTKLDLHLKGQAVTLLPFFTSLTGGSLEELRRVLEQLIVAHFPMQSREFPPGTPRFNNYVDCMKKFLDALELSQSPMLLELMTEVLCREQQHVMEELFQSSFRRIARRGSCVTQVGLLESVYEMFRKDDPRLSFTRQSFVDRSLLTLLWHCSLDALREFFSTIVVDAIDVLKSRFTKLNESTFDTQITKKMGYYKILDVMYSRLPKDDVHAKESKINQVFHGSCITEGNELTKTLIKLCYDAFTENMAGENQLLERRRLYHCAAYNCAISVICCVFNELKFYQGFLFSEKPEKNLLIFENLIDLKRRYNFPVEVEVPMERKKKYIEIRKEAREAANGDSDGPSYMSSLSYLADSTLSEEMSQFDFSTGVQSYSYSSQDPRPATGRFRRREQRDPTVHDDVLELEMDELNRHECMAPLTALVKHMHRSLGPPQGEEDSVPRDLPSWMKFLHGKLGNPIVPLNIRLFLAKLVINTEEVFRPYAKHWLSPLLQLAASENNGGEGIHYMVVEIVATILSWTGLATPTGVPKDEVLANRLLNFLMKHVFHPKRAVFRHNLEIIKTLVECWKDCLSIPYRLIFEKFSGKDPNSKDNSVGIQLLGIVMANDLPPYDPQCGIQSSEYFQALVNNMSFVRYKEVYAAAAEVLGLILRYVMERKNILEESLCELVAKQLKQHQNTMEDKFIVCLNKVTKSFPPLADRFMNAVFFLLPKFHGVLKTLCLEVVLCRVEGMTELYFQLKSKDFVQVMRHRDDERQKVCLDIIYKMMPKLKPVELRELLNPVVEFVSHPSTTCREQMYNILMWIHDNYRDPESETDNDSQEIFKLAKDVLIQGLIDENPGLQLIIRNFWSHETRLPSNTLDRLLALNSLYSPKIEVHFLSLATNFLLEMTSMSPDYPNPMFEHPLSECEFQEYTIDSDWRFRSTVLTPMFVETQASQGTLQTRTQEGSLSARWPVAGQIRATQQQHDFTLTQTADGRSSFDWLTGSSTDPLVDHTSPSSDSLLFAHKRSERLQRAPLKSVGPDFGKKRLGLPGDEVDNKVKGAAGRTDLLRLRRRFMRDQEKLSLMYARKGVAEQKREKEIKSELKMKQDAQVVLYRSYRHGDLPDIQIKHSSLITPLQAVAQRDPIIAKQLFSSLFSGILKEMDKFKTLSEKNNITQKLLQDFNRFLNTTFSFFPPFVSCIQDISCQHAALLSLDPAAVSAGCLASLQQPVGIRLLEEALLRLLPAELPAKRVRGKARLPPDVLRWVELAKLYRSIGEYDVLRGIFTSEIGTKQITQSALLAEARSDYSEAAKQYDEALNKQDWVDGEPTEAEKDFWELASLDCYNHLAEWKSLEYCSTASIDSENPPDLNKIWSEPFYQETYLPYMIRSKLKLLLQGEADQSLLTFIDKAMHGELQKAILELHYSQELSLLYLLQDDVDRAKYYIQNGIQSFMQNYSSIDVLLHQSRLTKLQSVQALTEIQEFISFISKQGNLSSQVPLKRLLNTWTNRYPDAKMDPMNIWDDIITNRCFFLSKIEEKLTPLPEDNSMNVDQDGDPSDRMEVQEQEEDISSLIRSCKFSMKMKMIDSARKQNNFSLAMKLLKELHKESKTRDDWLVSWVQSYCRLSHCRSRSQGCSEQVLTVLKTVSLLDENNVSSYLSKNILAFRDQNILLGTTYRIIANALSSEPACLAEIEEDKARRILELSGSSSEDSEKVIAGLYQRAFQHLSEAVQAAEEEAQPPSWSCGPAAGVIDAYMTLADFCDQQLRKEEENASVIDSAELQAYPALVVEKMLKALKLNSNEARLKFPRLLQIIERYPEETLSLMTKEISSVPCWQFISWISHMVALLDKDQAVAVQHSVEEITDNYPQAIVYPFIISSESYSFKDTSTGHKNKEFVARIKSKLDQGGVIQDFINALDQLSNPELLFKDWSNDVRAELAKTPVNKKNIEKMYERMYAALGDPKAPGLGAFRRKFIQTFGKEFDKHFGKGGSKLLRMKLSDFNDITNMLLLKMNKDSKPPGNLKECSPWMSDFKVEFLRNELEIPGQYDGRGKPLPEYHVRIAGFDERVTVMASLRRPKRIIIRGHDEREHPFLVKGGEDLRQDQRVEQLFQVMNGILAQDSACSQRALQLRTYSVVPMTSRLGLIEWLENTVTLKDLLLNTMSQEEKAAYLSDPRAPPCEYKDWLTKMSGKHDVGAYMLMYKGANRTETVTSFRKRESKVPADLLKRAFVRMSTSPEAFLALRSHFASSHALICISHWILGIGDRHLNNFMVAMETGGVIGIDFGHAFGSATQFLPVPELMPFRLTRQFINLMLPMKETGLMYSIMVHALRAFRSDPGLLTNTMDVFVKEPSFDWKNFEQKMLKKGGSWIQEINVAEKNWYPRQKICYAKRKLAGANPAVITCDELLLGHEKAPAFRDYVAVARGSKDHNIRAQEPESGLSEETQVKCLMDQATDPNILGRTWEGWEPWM

molecular target: FLAG/HA-double-tagged METTL8 (human) (UniProt Q9H825); experiment: affinity purification with mass spectrometry; large-scale (>10 L) purification of the FLAG/HA-METTL8 complex from 100 mg HeLaS3 nuclear extract by a scheme of chromatographic steps; FASP mass spectrometry (n = 3); controls: NHS column with IgG, METTL8 KO cells; complex resistant to RNase A

Substance | binding
NPM1 (from UniProt P06748 1-294) | binds
PARP1 (from UniProt P09874 1-1014) (enzyme) | binds
PRKDC (from UniProt P78527 1-4128) (enzyme) | binds
